In assay [1] the target is T1, Myc-SMC6 (human) (UniProt Q96SB8).
T1 sequence: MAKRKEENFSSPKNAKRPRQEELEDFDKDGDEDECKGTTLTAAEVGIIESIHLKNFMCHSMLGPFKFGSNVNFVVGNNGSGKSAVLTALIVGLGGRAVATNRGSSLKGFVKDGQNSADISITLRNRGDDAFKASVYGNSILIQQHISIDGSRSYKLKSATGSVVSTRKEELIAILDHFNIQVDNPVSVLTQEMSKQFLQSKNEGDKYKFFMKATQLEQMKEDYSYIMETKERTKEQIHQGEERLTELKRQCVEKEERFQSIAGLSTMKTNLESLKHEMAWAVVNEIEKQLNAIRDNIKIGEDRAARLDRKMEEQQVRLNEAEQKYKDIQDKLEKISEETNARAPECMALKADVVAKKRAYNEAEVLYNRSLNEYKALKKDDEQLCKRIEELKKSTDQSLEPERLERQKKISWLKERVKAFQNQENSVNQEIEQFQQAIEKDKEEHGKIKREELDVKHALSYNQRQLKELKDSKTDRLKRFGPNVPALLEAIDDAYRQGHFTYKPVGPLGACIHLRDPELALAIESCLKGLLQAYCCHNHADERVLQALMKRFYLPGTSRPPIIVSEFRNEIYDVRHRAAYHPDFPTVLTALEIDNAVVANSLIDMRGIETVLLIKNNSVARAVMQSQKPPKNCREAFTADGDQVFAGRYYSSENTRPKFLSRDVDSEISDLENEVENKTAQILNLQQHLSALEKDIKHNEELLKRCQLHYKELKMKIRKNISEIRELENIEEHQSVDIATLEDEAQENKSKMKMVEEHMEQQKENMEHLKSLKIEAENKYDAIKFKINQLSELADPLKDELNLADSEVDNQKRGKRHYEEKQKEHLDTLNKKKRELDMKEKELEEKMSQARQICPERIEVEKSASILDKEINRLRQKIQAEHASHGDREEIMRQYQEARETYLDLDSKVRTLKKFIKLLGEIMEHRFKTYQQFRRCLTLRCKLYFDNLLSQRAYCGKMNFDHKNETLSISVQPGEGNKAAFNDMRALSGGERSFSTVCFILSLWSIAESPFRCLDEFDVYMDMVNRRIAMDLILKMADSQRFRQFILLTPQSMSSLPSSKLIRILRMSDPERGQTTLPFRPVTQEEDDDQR
As to the kind of experiment: co-IP; GFP-Trap (Nano-Trap magnetic agarose, Chromotek) from HEK293 cells co-transfected with GFP-SIMC1 (WT or mutant; bait), Myc-SMC6 and FLAG-SLF2^CTD (WT, mut1, mut2 or 635–1160); western blot. A general note: A western blot detects proteins with antibodies after separation by electrophoresis.

Assay [2] concerns the target T2, GFP-SMC6 (human) (UniProt Q96SB8).
T2 sequence: T1 sequence
The assay is described as follows: co-IP; GFP-Trap (Nano-Trap magnetic agarose, Chromotek) from HEK293 cells co-transfected with GFP-SMC6 (WT or mutant; bait), 2Myc-SIMC1 and FLAG-SLF2^CTD; western blot with anti-GFP, FLAG, Myc.

These are yes or no findings as the source states them, for the method shown. In cells and extracts the contact can be indirect. A result given as binding can be weak or reduced; the word gives no strength. Sequences can lack the tags named with a protein.

Turning to “FLAG-SLF2^CTD (635–1173) mut1 (human) (domain or fragment)”, in assay [1], the binding result is recorded as “no binding”.

Turning to “FLAG-tagged C-terminal domain (CTD) of SLF2 (residues 635–1173) (human) (domain or fragment)”, the binding entry in assay [1] and in assay [2] was “binds” throughout.

For the substance “FLAG-SLF2^635-1160 (human) (domain or fragment)”, the binding result in assay [1] was “binds”.
